Reference: patent publication WO2025037032A1
These are yes or no findings as the source states them, for the method shown. Some entries that bind do so weakly or less than the wild type.

Amino acid sequences for entries named in this document (tags omitted). A change or cut given only in a name is not applied to a line headed by its entry. Residues count along the entry.
UniProt P02461, residues 154-1221: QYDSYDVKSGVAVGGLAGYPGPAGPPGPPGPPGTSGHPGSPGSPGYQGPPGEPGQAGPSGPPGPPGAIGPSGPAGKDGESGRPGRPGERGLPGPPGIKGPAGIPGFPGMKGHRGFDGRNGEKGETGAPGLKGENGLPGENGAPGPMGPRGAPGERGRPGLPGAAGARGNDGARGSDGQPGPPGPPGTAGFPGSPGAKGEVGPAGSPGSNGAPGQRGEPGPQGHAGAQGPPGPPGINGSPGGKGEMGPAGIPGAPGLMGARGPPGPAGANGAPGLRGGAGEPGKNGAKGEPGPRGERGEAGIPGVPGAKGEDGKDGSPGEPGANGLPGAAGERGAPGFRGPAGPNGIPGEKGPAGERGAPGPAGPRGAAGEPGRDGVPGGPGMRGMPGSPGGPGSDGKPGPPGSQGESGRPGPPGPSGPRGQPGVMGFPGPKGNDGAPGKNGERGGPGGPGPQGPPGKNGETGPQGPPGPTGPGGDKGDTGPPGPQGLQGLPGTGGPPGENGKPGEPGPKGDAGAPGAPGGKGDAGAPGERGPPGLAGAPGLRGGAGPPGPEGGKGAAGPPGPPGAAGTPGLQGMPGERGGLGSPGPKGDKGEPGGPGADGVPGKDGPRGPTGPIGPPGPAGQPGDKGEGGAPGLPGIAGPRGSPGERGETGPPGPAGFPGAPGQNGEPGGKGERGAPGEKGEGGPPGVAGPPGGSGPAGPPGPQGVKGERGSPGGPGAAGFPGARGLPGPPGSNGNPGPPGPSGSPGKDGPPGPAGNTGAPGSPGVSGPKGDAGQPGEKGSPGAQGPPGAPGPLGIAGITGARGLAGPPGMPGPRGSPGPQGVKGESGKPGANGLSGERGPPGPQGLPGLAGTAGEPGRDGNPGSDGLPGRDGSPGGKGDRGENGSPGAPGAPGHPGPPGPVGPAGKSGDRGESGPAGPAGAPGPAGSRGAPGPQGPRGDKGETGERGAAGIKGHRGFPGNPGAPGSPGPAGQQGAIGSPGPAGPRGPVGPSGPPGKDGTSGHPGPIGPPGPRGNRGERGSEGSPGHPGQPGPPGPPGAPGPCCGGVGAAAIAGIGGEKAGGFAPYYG
UniProt P04275: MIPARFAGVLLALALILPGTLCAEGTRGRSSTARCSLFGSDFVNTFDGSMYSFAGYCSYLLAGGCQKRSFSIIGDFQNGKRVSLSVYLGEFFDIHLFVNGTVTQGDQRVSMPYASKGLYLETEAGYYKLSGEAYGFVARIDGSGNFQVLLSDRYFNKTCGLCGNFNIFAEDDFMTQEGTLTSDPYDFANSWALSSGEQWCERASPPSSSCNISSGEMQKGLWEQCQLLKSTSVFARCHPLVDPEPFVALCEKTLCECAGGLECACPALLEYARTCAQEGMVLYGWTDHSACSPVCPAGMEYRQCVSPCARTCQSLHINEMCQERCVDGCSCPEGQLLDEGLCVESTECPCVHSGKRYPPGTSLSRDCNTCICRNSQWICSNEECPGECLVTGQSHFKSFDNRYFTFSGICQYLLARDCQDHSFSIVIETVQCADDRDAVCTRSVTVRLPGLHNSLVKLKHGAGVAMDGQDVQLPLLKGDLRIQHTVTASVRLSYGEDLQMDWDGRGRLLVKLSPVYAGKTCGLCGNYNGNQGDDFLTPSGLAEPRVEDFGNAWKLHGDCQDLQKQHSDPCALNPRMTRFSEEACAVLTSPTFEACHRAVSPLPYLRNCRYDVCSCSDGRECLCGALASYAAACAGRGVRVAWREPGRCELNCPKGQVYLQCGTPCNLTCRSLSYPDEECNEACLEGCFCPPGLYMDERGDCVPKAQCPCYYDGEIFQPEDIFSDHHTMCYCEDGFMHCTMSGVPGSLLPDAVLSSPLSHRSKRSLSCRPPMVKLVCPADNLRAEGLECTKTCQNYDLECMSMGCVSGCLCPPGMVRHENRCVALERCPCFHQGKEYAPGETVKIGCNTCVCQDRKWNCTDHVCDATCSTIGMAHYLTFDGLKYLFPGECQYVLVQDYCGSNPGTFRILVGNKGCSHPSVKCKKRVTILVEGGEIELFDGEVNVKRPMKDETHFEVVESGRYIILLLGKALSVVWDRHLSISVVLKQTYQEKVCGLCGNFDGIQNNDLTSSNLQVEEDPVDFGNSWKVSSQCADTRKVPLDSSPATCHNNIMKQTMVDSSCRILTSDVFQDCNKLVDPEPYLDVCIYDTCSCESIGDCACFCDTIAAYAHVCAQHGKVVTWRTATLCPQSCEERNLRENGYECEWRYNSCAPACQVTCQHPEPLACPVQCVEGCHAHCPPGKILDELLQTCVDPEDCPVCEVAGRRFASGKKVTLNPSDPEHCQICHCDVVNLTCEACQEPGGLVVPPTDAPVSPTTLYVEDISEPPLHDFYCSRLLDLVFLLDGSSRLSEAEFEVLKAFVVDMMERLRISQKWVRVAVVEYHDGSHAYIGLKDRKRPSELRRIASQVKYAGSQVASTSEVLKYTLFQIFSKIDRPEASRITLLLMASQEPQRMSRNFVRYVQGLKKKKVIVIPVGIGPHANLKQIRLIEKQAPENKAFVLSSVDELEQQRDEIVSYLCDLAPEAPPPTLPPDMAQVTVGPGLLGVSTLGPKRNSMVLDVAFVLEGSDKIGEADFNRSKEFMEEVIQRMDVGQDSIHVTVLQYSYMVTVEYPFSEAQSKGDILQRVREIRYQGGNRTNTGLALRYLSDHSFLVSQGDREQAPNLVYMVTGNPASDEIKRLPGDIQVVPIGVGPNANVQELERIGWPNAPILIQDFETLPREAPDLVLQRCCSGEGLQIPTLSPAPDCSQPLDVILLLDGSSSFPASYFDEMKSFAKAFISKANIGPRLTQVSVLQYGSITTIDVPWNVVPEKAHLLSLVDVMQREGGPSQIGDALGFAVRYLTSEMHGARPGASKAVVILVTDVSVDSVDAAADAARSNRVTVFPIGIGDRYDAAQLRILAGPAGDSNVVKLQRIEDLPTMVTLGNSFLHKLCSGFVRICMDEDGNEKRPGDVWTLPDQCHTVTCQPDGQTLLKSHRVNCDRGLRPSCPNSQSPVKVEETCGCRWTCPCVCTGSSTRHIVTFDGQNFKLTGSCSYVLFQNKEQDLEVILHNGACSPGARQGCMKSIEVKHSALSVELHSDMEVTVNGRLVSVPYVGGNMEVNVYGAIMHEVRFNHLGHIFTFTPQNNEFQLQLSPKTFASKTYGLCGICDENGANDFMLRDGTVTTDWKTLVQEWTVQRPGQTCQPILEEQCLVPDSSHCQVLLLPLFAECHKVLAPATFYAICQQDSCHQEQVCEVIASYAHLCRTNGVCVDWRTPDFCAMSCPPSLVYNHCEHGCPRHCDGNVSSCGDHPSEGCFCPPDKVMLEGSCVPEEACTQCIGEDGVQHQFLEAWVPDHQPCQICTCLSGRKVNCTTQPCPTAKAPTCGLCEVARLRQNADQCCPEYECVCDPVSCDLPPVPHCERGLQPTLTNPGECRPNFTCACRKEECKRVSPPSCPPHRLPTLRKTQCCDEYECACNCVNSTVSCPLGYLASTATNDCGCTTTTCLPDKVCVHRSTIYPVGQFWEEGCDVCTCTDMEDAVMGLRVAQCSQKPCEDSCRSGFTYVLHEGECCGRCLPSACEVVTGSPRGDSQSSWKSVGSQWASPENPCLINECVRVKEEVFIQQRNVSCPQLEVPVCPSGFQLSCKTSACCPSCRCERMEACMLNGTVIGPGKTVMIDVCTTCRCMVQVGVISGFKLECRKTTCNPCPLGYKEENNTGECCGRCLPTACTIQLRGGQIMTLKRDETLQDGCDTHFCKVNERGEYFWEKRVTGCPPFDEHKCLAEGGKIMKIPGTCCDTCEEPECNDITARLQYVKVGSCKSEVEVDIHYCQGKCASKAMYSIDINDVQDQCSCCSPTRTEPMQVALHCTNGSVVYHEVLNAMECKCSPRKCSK

How the values were obtained:
[1] = biological target: collagen type III from human placenta (human) (UniProt P02461); test: ELISA; 2 nM plasma-derived VWF on coated human placenta collagen III, pre-incubated with 0 or 300 nM monovalent antibodies
[2] = biological target: collagen type III from human placenta (human) (UniProt P02461); test: ELISA; VWF of human plasma captured on coated human placenta collagen type III, in the presence of 600 nM one-arm antibodies

## human plasma-derived VWF (from UniProt P04275 764-2813)
[1]
  binding: binds
[2]
  binding: binds
